# Measurements as given in the supplement of paper PMC8728848.
# Some of the results follow.
# B1: PX15642A-pgi-501-20-501 (Parabacteroides gingivalis) (protein)
# chain: CELDRDPEGKDFQQPYTSFVQTKQNRDGLYALLRNTENPRMHFYQELQSDMYCTTITDGNSLAPFVNWDLGILNDHGRADEDEVSGIAGYYFVYNRLNQQANAFVNNTEAALQNQVYKNSTEIANAKSFLAEGKVLQALAIWRLMDRFSFHESVTEVNSGAKDLGVILLKEYNPGYIGPRATKAQCYDYILSRLSEAIEVLPENRESVLYVSRDYAYALRARIYLALGEYGKAAADAKMVVDKYPLIGAADASEFENIYRSDANNPEIIFRGFASATLGSFTATTLNGAAPAGKDIKYNPSAVPFQWVVDLYENEDFRKSVYIAKVVKKDKGYLVNKFLEDKAYRDVQDKPNLKVGARYFSVAEVYLILVESALQTGDTPTAEKYLKALSKARGAEVSVVNMEALQAERTRELIGEGSRLRDMVRWSIPNNHDAFETQPGLEGFANTTPLKAQAPVGFYAYTWEFPQRDRQTNPQLIKNWPI
# What was measured:
# Experiment in all cases: glycan array binding signal (z-score within array); higher = stronger binding
# Settings in all cases: glycan notation: IUPAC condensed, linker removed
# [1] = biological target: Gal(a1-3)[Gal(a1-4)]Gal(b1-4)GlcNAc
# Outline: (§1)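 Arrays were curated from the Consortium for Functional Glycomics database, 3228 in total, and kept only where the protein sequence was available. Binding is expressed as a within-array Z-score. This score was averaged across arrays of the same protein sequence at different concentrations or buffers and across linkers, and negative values can be read as non-binding.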
# [2] = biological target: Gal(a1-4)Gal(b1-3)GlcNAc(b1-2)Man(a1-3)[Gal(a1-4)Gal(b1-3)GlcNAc(b1-2)Man(a1-6)]Man(b1-4)GlcNAc(b1-4)GlcNAc
# Outline: as §1
# Gal(a1-4)Gal(b1-4)Glc = biological target: Gal(a1-4)Gal(b1-4)Glc
# Outline: as §1
# Gal(a1-4)Gal(b1-4)GlcNAc = biological target: Gal(a1-4)Gal(b1-4)GlcNAc
# Outline: as §1
# [3] = biological target: Gal(a1-4)Gal(b1-4)GlcNAc(b1-2)Man(a1-3)[Gal(a1-4)Gal(b1-4)GlcNAc(b1-2)Man(a1-6)]Man(b1-4)GlcNAc(b1-4)GlcNAc
# Outline: as §1
# [4] = biological target: Gal(a1-4)Gal(b1-4)GlcNAc(b1-3)Gal(b1-4)Glc
# Outline: as §1
# Gal(a1-4)GlcNAc = biological target: Gal(a1-4)GlcNAc
# Outline: as §1
# Gal(a1-6)Glc = biological target: Gal(a1-6)Glc
# Outline: as §1
# Gal(b1-2)Gal = biological target: Gal(b1-2)Gal
# Outline: as §1
# Gal(b1-3)Gal = biological target: Gal(b1-3)Gal
# Outline: as §1
# Gal(b1-3)Gal(b1-4)GlcNAc = biological target: Gal(b1-3)Gal(b1-4)GlcNAc
# Outline: as §1
# Gal(b1-3)GalNAc = biological target: Gal(b1-3)GalNAc
# Outline: as §1
# [5] = biological target: Gal(b1-3)GalNAc(a1-3)[Fuc(a1-2)]Gal(b1-4)Glc
# Outline: as §1
# [6] = biological target: Gal(b1-3)GalNAc(a1-3)[Fuc(a1-2)]Gal(b1-4)GlcNAc
# Outline: as §1
# Gal(b1-3)GalNAc(b1-3)Gal = biological target: Gal(b1-3)GalNAc(b1-3)Gal
# Outline: as §1
# [7] = biological target: Gal(b1-3)GalNAc(b1-3)Gal(a1-4)Gal(b1-4)Glc
# Outline: as §1
# [8] = biological target: Gal(b1-3)GalNAc(b1-4)Gal(b1-4)Glc
# Outline: as §1
# [9] = biological target: Gal(b1-3)GalNAc(b1-4)[Neu5Ac(a2-3)]Gal(b1-4)Glc
# Outline: as §1
# Gal(b1-3)GlcNAc = biological target: Gal(b1-3)GlcNAc
# Outline: as §1
# [10] = biological target: Gal(b1-3)GlcNAc(a1-3)Gal(b1-4)GlcNAc
# Outline: as §1
# [11] = biological target: Gal(b1-3)GlcNAc(a1-6)Gal(b1-4)GlcNAc
# Outline: as §1
# Gal(b1-3)GlcNAc(b1-2)Man = biological target: Gal(b1-3)GlcNAc(b1-2)Man
# Outline: as §1
# [12] = biological target: Gal(b1-3)GlcNAc(b1-2)Man(a1-3)[Gal(b1-3)GlcNAc(b1-2)Man(a1-6)]Man(b1-4)GlcNAc(b1-4)GlcNAc
# Outline: as §1
# [13] = biological target: Gal(b1-3)GlcNAc(b1-2)Man(a1-3)[Gal(b1-3)GlcNAc(b1-2)Man(a1-6)]Man(b1-4)GlcNAc(b1-4)[Fuc(a1-6)]GlcNAc
# Outline: as §1
# [14] = biological target: Gal(b1-3)GlcNAc(b1-2)Man(a1-3)[GlcNAc(b1-4)][Gal(b1-3)GlcNAc(b1-2)Man(a1-6)]Man(b1-4)GlcNAc(b1-4)GlcNAc
# Outline: as §1
# [15] = biological target: Gal(b1-3)GlcNAc(b1-2)[Gal(b1-3)GlcNAc(b1-6)]Man(a1-6)[Gal(b1-3)GlcNAc(b1-2)Man(a1-3)]Man(b1-4)GlcNAc(b1-4)GlcNAc
# Outline: as §1
# [16] = biological target: Gal(b1-3)GlcNAc(b1-3)Gal(b1-3)GlcNAc
# Outline: as §1
# [17] = biological target: Gal(b1-3)GlcNAc(b1-3)Gal(b1-4)Glc
# Outline: as §1
# [18] = biological target: Gal(b1-3)GlcNAc(b1-3)Gal(b1-4)GlcNAc
# Outline: as §1
# [19] = biological target: Gal(b1-3)GlcNAc(b1-3)Gal(b1-4)GlcNAc(b1-2)Man(a1-3)[Gal(b1-3)GlcNAc(b1-3)Gal(b1-4)GlcNAc(b1-2)Man(a1-6)]Man(b1-4)GlcNAc(b1-4)GlcNAc
# Outline: as §1
# [20] = biological target: Gal(b1-3)GlcNAc(b1-3)Gal(b1-4)GlcNAc(b1-2)[Gal(b1-3)GlcNAc(b1-3)Gal(b1-4)GlcNAc(b1-6)]Man(a1-6)[Gal(b1-3)GlcNAc(b1-3)Gal(b1-4)GlcNAc(b1-2)Man(a1-3)]Man(b1-4)GlcNAc(b1-4)[Fuc(a1-6)]GlcNAc
# Outline: as §1
# [21] = biological target: Gal(b1-3)GlcNAc(b1-3)Gal(b1-4)GlcNAc(b1-3)Gal(b1-4)GlcNAc(b1-2)[Gal(b1-3)GlcNAc(b1-3)Gal(b1-4)GlcNAc(b1-3)Gal(b1-4)GlcNAc(b1-6)]Man(a1-6)[Gal(b1-3)GlcNAc(b1-3)Gal(b1-4)GlcNAc(b1-3)Gal(b1-4)GlcNAc(b1-2)Man(a1-3)]Man(b1-4)GlcNAc(b1-4)[Fuc(a1-6)]GlcNAc
# Outline: as §1
# [22] = biological target: Gal(b1-3)GlcNAc(b1-3)Gal(b1-4)GlcNAc(b1-6)[Gal(b1-3)GlcNAc(b1-3)]Gal(b1-4)Glc
# Outline: as §1
# [23] = biological target: Gal(b1-3)GlcNAc(b1-3)Gal(b1-4)[Fuc(a1-3)]GlcNAc
# Outline: as §1
# [24] = biological target: Gal(b1-3)GlcNAc(b1-3)Gal(b1-4)[Fuc(a1-3)]GlcNAc(b1-6)[Gal(b1-3)GlcNAc(b1-3)]Gal(b1-4)Glc
# Outline: as §1
# [25] = biological target: Gal(b1-3)GlcNAc(b1-3)GalNAc
# Outline: as §1
# [26] = biological target: Gal(b1-3)GlcNAc(b1-6)Gal(b1-4)GlcNAc
# Outline: as §1
# [27] = biological target: Gal(b1-3)GlcNAc(b1-6)GalNAc
# Outline: as §1
binder,measurement,setting,value
B1,glycan array binding signal (z-score),[1],6.32
same,glycan array binding signal (z-score),[2],0.218
same,glycan array binding signal (z-score),Gal(a1-4)Gal(b1-4)Glc,-0.455
same,glycan array binding signal (z-score),Gal(a1-4)Gal(b1-4)GlcNAc,0.206
same,glycan array binding signal (z-score),[3],0.38
same,glycan array binding signal (z-score),[4],-1.13
same,glycan array binding signal (z-score),Gal(a1-4)GlcNAc,-0.317
same,glycan array binding signal (z-score),Gal(a1-6)Glc,-0.727
same,glycan array binding signal (z-score),Gal(b1-2)Gal,-0.367
same,glycan array binding signal (z-score),Gal(b1-3)Gal,0.322
same,glycan array binding signal (z-score),Gal(b1-3)Gal(b1-4)GlcNAc,-0.269
same,glycan array binding signal (z-score),Gal(b1-3)GalNAc,-0.163
same,glycan array binding signal (z-score),[5],1.53
same,glycan array binding signal (z-score),[6],-1.14
same,glycan array binding signal (z-score),Gal(b1-3)GalNAc(b1-3)Gal,-0.725
same,glycan array binding signal (z-score),[7],0.839
same,glycan array binding signal (z-score),[8],0.251
same,glycan array binding signal (z-score),[9],0.15
same,glycan array binding signal (z-score),Gal(b1-3)GlcNAc,-0.186
same,glycan array binding signal (z-score),[10],-0.472
same,glycan array binding signal (z-score),[11],-0.002
same,glycan array binding signal (z-score),Gal(b1-3)GlcNAc(b1-2)Man,-0.14
same,glycan array binding signal (z-score),[12],0.32
same,glycan array binding signal (z-score),[13],0.164
same,glycan array binding signal (z-score),[14],1.96
same,glycan array binding signal (z-score),[15],0.007
same,glycan array binding signal (z-score),[16],0.332
same,glycan array binding signal (z-score),[17],-0.14
same,glycan array binding signal (z-score),[18],-0.711
same,glycan array binding signal (z-score),[19],-0.156
same,glycan array binding signal (z-score),[20],0.168
same,glycan array binding signal (z-score),[21],0.763
same,glycan array binding signal (z-score),[22],-0.658
same,glycan array binding signal (z-score),[23],0.782
same,glycan array binding signal (z-score),[24],0.663
same,glycan array binding signal (z-score),[25],-0.201
same,glycan array binding signal (z-score),[26],-1.06
same,glycan array binding signal (z-score),[27],-0.003

# Retrieved one by one from the list above:
binder,measurement,setting,value
B1,glycan array binding signal (z-score),[3],0.38
same,glycan array binding signal (z-score),[1],6.32
same,glycan array binding signal (z-score),[23],0.782
